# Test results taken from patent US20210292408A1.
# These are yes or no findings as the source states them, for the method shown. Binding seen in cells or lysates may run through a third protein. A yes stands for co-enrichment or nearness to the bait. Other partners may have been found.
# T1: sideroflexin 3 (native, from membrane proteins of NLC of CLL patients) (human) (UniProt Q9BWM7)
# T1 sequence (looked up): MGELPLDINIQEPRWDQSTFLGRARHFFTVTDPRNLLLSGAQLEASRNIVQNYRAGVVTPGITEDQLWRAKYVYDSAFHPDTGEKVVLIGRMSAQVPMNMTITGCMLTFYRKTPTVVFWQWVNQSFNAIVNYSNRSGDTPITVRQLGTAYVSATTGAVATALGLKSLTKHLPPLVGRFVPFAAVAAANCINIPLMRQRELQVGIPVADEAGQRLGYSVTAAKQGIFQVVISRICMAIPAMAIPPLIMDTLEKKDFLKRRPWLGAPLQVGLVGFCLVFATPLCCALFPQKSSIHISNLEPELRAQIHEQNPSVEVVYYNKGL
# B1: 6-25 antibody (antibody, V domains shown)
# VH: QVQLKESGPGLVAPSQSLSITCTVSGFSLTGYGVNWVRQPPGKGLEWLGMIWGDGSTDYNSDLKSRLSITEDNSKRQVFLKMDSLQTEDTARYYCARDLKFAYWGQGTLVTVSA
# VL: DIVMTQSHKFMSSSVGDRVSITCKASQHVTTAVAWFQQKPGQSPKLLIYSASFRYTGVPDRFTGSGSGTDFTFTISTVQAEDLAVYYCQQHYTTPWTFGGGTKLEIK
# Molecular target: T1, sideroflexin 3 (native, from membrane proteins of NLC of CLL patients) (human)
# Experiment: immunoprecipitation of NLC membrane proteins with hybridoma supernatant on beads, mass spectrometry
binder,measurement,value
B1,binding,binds
